Assay results: PMC5110245, “Identification and reconstitution of the rubber biosynthetic machinery on rubber particles from Hevea brasiliensis” (eLife, 2016)

The chains behind the UniProt entries cited, without tags or fusion partners. Where a name states a change or a piece, a line headed by the entry shows the natural chain unless it says otherwise.
UniProt A0A1E1GJI0: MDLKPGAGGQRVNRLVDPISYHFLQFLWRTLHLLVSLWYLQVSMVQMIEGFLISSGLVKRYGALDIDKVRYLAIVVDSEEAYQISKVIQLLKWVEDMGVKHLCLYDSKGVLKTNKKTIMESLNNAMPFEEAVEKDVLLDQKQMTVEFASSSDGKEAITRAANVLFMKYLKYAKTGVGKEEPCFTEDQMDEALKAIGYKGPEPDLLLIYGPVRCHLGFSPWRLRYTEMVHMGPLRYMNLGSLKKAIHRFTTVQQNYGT

Columns and labels:
[1] = target: T1, HRT2 (cis-prenyltransferase from Hevea brasiliensis), split-ubiquitin Y2H fusion (Hevea brasiliensis) (UniProt Q8W3U4); test: two-hybrid; split-ubiquitin-based Y2H (DUALmembrane Kit 3), pairwise; S. cerevisiae NMY51; bait in pBT3-SUC (Cub-LexA-VP16), prey in pPR3-N (NubG); growth of dilution series on SD(-WL), SD(-WLH), SD(-WLHAde) and SD(-WLHAde) with 1 mM 3-AT, 30°C
T1 sequence: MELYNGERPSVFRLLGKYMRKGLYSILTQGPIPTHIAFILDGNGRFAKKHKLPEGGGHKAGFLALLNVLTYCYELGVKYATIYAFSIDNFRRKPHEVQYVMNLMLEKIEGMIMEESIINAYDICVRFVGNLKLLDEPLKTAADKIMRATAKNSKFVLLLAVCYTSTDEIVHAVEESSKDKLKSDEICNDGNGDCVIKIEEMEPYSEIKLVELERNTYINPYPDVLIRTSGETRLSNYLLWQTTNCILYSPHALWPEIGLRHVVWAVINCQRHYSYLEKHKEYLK

[2] = target: T2, Rubber elongation factor (REF) from Hevea brasiliensis, split-ubiquitin Y2H fusion (Hevea brasiliensis) (UniProt P15252); test: as above
T2 sequence: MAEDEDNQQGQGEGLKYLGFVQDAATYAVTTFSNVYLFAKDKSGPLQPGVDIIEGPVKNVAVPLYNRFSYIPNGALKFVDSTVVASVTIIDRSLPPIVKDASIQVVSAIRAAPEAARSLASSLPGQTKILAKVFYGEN

[3] = target: T3, Rubber elongation factor (REF) fused to a split mVenus fragment (BiFC) (Hevea brasiliensis) (UniProt P15252); test: split reporter; BiFC with split mVenus fragments (pDOE-05 or pDOE-07) in agroinfiltrated N. benthamiana leaf epidermal cells, confocal microscopy 2 days after infiltration; also with REF:mCherry co-expressed (Figure 4B)
T3 sequence: T2 sequence

Row | binding [1] | binding [2] | binding [3] | Substance
1 | no binding | no binding |  | HRT1 (cis-prenyltransferase from Hevea brasiliensis), split-ubiquitin Y2H fusion (from UniProt Q8L5B7) (enzyme)
2 |  |  | binds | HRT1-REF bridging protein (HRBP) fused to a split mVenus fragment (BiFC) (from UniProt A0A1E1GJI0)

No constants are given. Whether binding was seen depends on the method and setting. For part of these data: Binding seen in cells or lysates may run through a third protein. For part of these data: A result given as binding can be weak or reduced; the word gives no strength. Sequences can lack the tags named with a protein.
